This is an account of results in article PMC9649694.

Chains of the proteins cited; added tags and fusions are not shown.
UniProt Q9H1Y0: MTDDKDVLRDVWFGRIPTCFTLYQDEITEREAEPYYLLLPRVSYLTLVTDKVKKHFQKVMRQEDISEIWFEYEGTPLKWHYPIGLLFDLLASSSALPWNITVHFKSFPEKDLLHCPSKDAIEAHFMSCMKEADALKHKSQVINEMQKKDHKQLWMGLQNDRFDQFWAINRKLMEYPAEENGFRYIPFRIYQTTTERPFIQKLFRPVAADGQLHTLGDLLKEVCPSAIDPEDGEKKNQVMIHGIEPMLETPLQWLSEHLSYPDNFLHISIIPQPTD
UniProt O60260: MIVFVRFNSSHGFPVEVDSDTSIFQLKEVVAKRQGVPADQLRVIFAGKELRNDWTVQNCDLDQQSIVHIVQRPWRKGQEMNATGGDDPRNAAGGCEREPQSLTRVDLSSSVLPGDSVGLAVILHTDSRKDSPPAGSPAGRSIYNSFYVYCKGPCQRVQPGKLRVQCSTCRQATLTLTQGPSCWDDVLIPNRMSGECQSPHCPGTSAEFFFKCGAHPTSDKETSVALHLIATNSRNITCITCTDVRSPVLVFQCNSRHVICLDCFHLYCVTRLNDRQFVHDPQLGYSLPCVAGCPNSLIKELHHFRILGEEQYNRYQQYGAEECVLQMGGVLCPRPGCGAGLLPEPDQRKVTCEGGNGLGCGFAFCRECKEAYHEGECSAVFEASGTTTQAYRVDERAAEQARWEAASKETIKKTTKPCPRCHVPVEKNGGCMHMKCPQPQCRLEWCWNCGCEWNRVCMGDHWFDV
UniProt O14818: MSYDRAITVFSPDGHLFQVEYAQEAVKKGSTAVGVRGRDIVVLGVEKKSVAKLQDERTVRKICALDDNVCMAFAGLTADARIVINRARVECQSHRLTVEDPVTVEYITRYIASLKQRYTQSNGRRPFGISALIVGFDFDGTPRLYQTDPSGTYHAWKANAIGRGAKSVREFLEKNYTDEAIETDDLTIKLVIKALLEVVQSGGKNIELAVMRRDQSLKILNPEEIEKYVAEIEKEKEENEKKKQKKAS

No constants are given. Whether binding was seen depends on the method and setting. Binding seen in cells or lysates may run through a third protein. These calls come from enrichment with a bait or labelling near it, and not all partners need be listed.

For assay [1], the target named is FLAG-ATG5 (human) (UniProt Q9H1Y0). Put plainly: affinity purification with mass spectrometry; SILAC-MS/MS on mitochondria isolated from Tri-SILAC labeled FLAG-ATG5 expressing HEK 293 T cells; CCCP against control; n = 3.
Assay [2] shares this target. Put plainly: affinity purification with mass spectrometry; SILAC-MS/MS interactome with ATG5 as bait; Tri-SILAC labeled FLAG-ATG5 expressing HEK 293 T cell extracts; CCCP against control; n = 1.

“PARK2 found by SILAC-MS/MS (from UniProt O60260 1-465)”: in the assay with FLAG-ATG5 (human) [1], the binding entry was “binds”.
As for “PSMA7 (endogenous, HEK 293 T cells) (from UniProt O14818 1-248)”, the binding result with FLAG-ATG5 (human) [2] is listed as “binds”.
